41 compounds from PubChem BioAssay AID493014 (National Center for Advancing Translational Sciences (NCATS), 2011) can be followed below.

The nature of this assay: qHTS Assay to Find Inhibitors of Chronic Active B-Cell Receptor Signaling. To be noted: ABC-DLBCL IkBa-CBG/CBR reporter, luminescence ratio (green luciferase fused to IkBa over red control in TMD8 lymphoma cells), 4 h. The essentials: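 Concentration-response series (up to 46 uM) were applied to TMD8 dual-reporter cells for 4 h at 37C with doxycycline. Green/red ratio, after filter-overlap correction, defined %Activity; red signal alone was normalised to basal cells and zero luminescence.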

Setting [1] is: measured here: CBR red luminescence, cell number.
Setting [2] is: measured here: IkBa-CBG green luminescence.

The list shows a part of the results. Shown are side measurements of this screen, not its main read-out; they come without a call. Most of these compounds were active or inconclusive in the main read-out, so they are no random draw. Words in brackets tell the shape of the fitted curve; partial curves, single points and poor fits give uncertain potencies.

Usually AC50 stands for the midpoint of the concentration-response curve, whichever way the signal moves. Take `O=C(Nc1sc2c(c1C(=O)O)CCCCC2)c1ccccc1`: the AC50 under setting [1] was 0.112 µM [falling, full curve, poor fit]. On the same count and under the same terms, with `C=CCn1c(SCC(N)=O)nc(C)cc1=O` the figure was 20.6 µM [rising, single point]; with `Cc1cc(C)n(-c2ccc(C(=O)OCc3nnc(-c4ccccc4)o3)cc2)n1`, 10 µM [rising, partial curve, poor fit].

Take `CN(c1ccc(C(=O)NCCc2ccccc2)cc1)S(C)(=O)=O`: under setting [1], the AC50 is 23.1 µM [rising, partial curve, poor fit]. For the compound `O=C(c1ccc(Cl)cc1)c1cc([N+](=O)[O-])ccc1N1CCOCC1`, under setting [2], the AC50 is 11.2 µM [falling, partial curve].

For `CCOC(=O)c1cnc(-c2ccccc2)nc1-c1ccccc1`, the concentration at half-maximal activity (AC50) under setting [1] is 20 µM [rising, single point]. Still for that read-out and setting: the result for `O=[N+]([O-])c1ccc2sc(SCc3nc4ccccn4c3Br)nc2c1` reads 6.51 µM [falling, partial curve, poor fit]; that for `COc1ccc(C(=O)OCC(=O)Nc2ncc([N+](=O)[O-])s2)cc1OC`, 20.6 µM [falling, single point]; that for `CNC(=S)N1CCN(c2ccccc2OC)CC1`, 14.1 µM [rising, single point].

`COc1ccccc1OCC(=O)N/N=C/c1cccc2cccnc12`: the half-maximal activity concentration (AC50) under setting [1] is 20 µM [falling, single point]. In the case of `O=C(COC(=O)C1=COCCO1)Nc1ncc(Cl)cc1Cl`, the AC50 under setting [1] was 29.1 µM [rising, single point]. With `S=C1CCC(c2ccc(Br)cc2)=NN1c1ccccc1`, the AC50 under setting [1] is 0.891 µM [rising, full curve]. On to `CCOC(=O)c1c(CSc2ccccc2)n(C)c2cc(Br)c(OC)c(O)c12`, for which, under setting [1], the AC50 was 3.16 µM [rising, full curve, poor fit]. Same read-out and setting: with `CC1(c2nnc(-c3ccc(F)cc3)o2)CC(c2ccc(Cl)cc2)=NO1` (configuration not stated) the figure was 3.98 µM [rising, partial curve, poor fit]; with `Cn1cccc1C(=O)NCCc1ccc(Cl)cc1`, 8.91 µM [falling, partial curve, poor fit]. On the same count and under the same terms, the result for `O=S(=O)(c1c(F)cccc1F)N1CCN(C(=S)NCc2ccc3c(c2)OCO3)CC1` reads 1.78 µM [rising, partial curve, poor fit]; that for `Cn1c(=O)c2c(nc(CN3CCN(C(=O)c4ccco4)CC3)n2CCc2ccccc2)n(C)c1=O`, 14.1 µM [rising, single point]. Turning to `O=C(NC(=S)Nc1ccccc1N1CCOCC1)c1cccc([N+](=O)[O-])c1`, the AC50 under setting [1] is 10 µM [rising, partial curve, poor fit].

For `O=C1c2ccccc2C(=O)N1CCCc1cn(C[C@H]2CC[C@H](Cn3cc(CCCN4C(=O)c5ccccc5C4=O)nn3)O2)nn1`, the AC50 under setting [1] was 10.3 µM [rising, partial curve, poor fit]. With `Cc1ccc(SC(C)c2nc(-c3ccncc3)no2)cc1` (configuration not stated), under setting [1], the AC50 is 20.6 µM [rising, partial curve, poor fit]. The same measure, in the same setting: the result for `COC(=O)CC(=O)CSc1nc2c(cc1C#N)CCCCC2` reads 0.461 µM [falling, full curve]. For the compound `O=c1c2ccc(Cl)cc2nc2n1CC/C2=C\c1cccc(O)c1`, under setting [1], the AC50 was 8.91 µM [falling, partial curve, poor fit].

As to `O=C(Nc1ccc(F)cc1)c1ccccc1NS(=O)(=O)N1CCCC1`, under setting [1], the AC50 was 4.47 µM [falling, full curve, poor fit]. On to `CCC(C)(C)n1nnnc1C(c1cc2ccc(OC)cc2[nH]c1=O)N1CCc2ccccc2C1` (configuration not stated), for which the AC50 under setting [1] is 29.1 µM [falling, single point]. As to `COc1ccc(NC(=S)NCC(c2ccco2)N2CCCC2)cc1` (configuration not stated), the AC50 under setting [1] was 35.5 µM [rising, partial curve, poor fit]. Same read-out and setting: the result for `COc1ccccc1NC(=S)NN1CCN(C)CC1` reads 9.2 µM [falling, partial curve]; that for `CCc1cccc(NC(=O)C2CCCN2S(=O)(=O)c2ccc3c(c2)CC(C)N3C(C)=O)c1` (configuration not stated), 2 µM [rising, single point]; that for `O=C(NCCc1ccc(F)cc1)c1ccc2nccnc2c1`, 25.9 µM [falling, partial curve]. Consider `CCCCC(=O)Nc1c(-c2cccc(OC)c2)c(=O)c2ccccc2n1C`, for which the half-maximal activity concentration (AC50) under setting [1] was 35.5 µM [rising, partial curve, poor fit]. `N#CC1=C(N)Oc2n[nH]c(-c3cccs3)c2C1C1CCCCC1` (configuration not stated): the concentration at half-maximal activity (AC50) under setting [1] is 16.4 µM [falling, partial curve, poor fit]. As for `Cc1ccc(C)c(NC(=S)NNC(=O)c2csc(C(C)C)c2)c1`, under setting [1], the AC50 was 29.1 µM [falling, single point]. Same read-out and setting: the result for `CC(=O)C(CC(=O)N1CCCc2ccccc21)C(=O)Nc1ccc(F)cc1` (configuration not stated) reads 29.1 µM [falling, single point]. For the compound `Cc1ccc(S(=O)(=O)c2c(N)n(C)c3nc4ccccc4nc23)cc1`, the AC50 runs as follows: under setting [1], 13 µM [falling, partial curve]; under setting [2], 7.31 µM [rising, partial curve, poor fit]. In the case of `Cc1nc2scc(-c3ccc(C(C)C)cc3)c2c(=O)n1N`, the AC50 under setting [1] is 20 µM [rising, single point]. On the same count and under the same terms, the result for `CCC(CC)C(=O)Nc1nc(-c2ccc3c(c2)CCN3C(=O)C2CC2)c(C)s1` reads 13 µM [rising, single point].

On to `Cc1cccc(C)c1-n1nnnc1C1(Nc2ccccc2)CCCCC1`, for which the AC50 under setting [1] was 0.92 µM [falling, full curve, poor fit]. Still for that read-out and setting: with `CCC1CCc2c(sc(NC(=O)C3CC=CCC3C(=O)O)c2C#N)C1` (configuration not stated) the figure was 20.6 µM [falling, partial curve]. Regarding `Oc1ccc(COC2CCCC2)c2cccnc12`, under setting [2], the AC50 was 3.26 µM [falling, full curve].

`CCN(Cc1nc2cc(Cl)ccc2c(=O)[nH]1)C(=O)C1CC(=O)N(c2cccc3ccccc23)C1` (configuration not stated): the AC50 under setting [1] is 2.91 µM [falling, partial curve, poor fit]. As for `CCC(C)(C)n1nnnc1C(c1ccc(O)c(OC)c1)N1CCN(c2nc3ccccc3s2)CC1` (configuration not stated), the AC50 under setting [1] is 20 µM [falling, single point]. Turning to `COc1ccc(CCN(C)C(=O)CCCN2C(=O)c3cccc4cccc(c34)C2=O)cc1OC`, under setting [1], the half-maximal activity concentration (AC50) was 4.47 µM [rising, full curve, poor fit].
